Results reported in article PMC5522267, “Targeting PEPT1: a novel strategy to improve the antitumor efficacy of doxorubicin in human hepatocellular carcinoma therapy” (Oncotarget, 2017).
Structures can show the parent of a compound that is named as a salt.

Tested on: HepG2
Assay: cells
Assay type: cell-based
Conditions: Homo sapiens; HepG2, MTT
Method: Cells in the growth log phase were seeded in 96-well plate (200 ul/well) with density 8×10^3/well for 24 hours, then the drugs were added. The concentration of Doxorubicin-tripeptide conjugate was 0.005 mg/ml, 0.01 mg/ml, 0.02 mg/ml, 0.04 mg/ml, 0.06 mg/ml in turn, while Doxorubicin followed by 0.005 mg/ml, 0.01 mg/ml, 0.02 mg/ml, 0.04 mg/ml, 0.06 mg/ml with a same dosing volume 100 μl. Each concentration group included five equal wells and was provided with a control well of medium alone as a negative control. Add 20 μl of MTT Reagent ( 5 mg/ml, Sigma) to each well, including controls and continue to be incubated at 37°C for 4 hours. Remove the supernatant, drop plus DMSO (200 μl/well) and measure the OD value in each well, including the blanks, at 490 nm by a Multi-Mode Reader (BioTek, Synergy 2, USA). To calculate the inhibitory rate and the half maximal inhibitory concentration (IC50) according to the formula: Inhibitory rate =(1-( the dosing group OD/the control group OD )) × 100%, IC50 = lg^-1 (Xm-i (ΣP-0.5)) (Xm: the logarithm of maximum concentration, I: the logarithm of maximum dose/ adjacent dose, P: the sum of each group inhibitory rate, Pm: the maximum inhibitory rate, Pn: the minimum inhibitory rate ).

COc1cccc2c1C(=O)c1c(O)c3c(c(O)c1C2=O)C[C@@](O)(C(=O)CO)C[C@@H]3O[C@H]1C[C@H](N)[C@H](O)[C@H](C)O1 [Doxorubicin, Doxorubicin hydrochloride]
IC50: 14.7 µg/mL
